Assay results published in publication PMC6272981 (Molecules, 2016).
*1 amine or outer side, *2 acyl side, *3 side chain or, on linkers, in order; H or OH if unused. Bridges are numbered along the chain shown (N, C = ends). [ ]: non-standard residue; d: D form. Suberoyl(Gly)2 = O=C(CCCCCCC(=O)NCC(=O)[*:2])NCC(=O)[*:1]; X1 = O=C(O)CCNC(=S)NCCCC[C@H](N[*:1])C(=O)[*:2]; Suberoyl = O=C(CCCCCCC(=O)[*:2])[*:1]

Assay: general procedure: Fmoc solid-phase peptide synthesis; Rink Amide MBHA resin (loading capacity = 0.34 mmol/g); HBTU/HOBt/NMM
Conditions: for final HPLC purity: late stage modification step; for final HPLC purity / crude HPLC purity: RP-HPLC on analytical C18 column, 214 nm; for crude HPLC purity / isolated yield: whole synthesis; for isolated yield: overall

**Q.** With “Ac-AR[X1]ST-NH2 (SMILES CC(=O)N[C@@H](C)C(=O)N[C@@H](CCCNC(=N)N)C(=O)N[C@@H](CCCCNC(=S)NCCC(=O)O)C(=O)N[C@@H](CO)C(=O)N[C@H](C(N)=O)[C@@H](C)O)” as the substance, how does the “final HPLC purity” value read?
**A.** Its value is >95%.

**Q.** Which “final HPLC purity” value does the source give for “Ac-KR[X1]KT-NH2 (linker 1-4 via Suberoyl(Gly)2; SMILES CC(=O)N[C@H]1CCCCNC(=O)CNC(=O)CCCCCCC(=O)NCC(=O)NCCCC[C@@H](C(=O)N[C@H](C(N)=O)[C@@H](C)O)NC(=O)[C@H](CCCCNC(=S)NCCC(=O)O)NC(=O)[C@H](CCCNC(=N)N)NC1=O)” here?
**A.** Its value is >95%.

**Q.** And the “crude HPLC purity” value?
**A.** The value was 34% pure.

**Q.** And the isolated yield?
**A.** The isolated yield was 41%.

**Q.** Which “final HPLC purity” value does the source give for “Ac-KR[X1]KT-NH2 (linker 1-4 via Suberoyl; SMILES CC(=O)N[C@H]1CCCCNC(=O)CCCCCCC(=O)NCCCC[C@@H](C(=O)N[C@H](C(N)=O)[C@@H](C)O)NC(=O)[C@H](CCCCNC(=S)NCCC(=O)O)NC(=O)[C@H](CCCNC(=N)N)NC1=O)” here?
**A.** Its value is >95%.

**Q.** What about the “crude HPLC purity” value of the same substance?
**A.** Its value is 31% pure.

**Q.** What about the isolated yield of the same substance?
**A.** Its isolated yield is 38%.
